Measurements as given in the supplement of paper PMC7877785.
± gives the uncertainty stated by the source. Many entries were measured with a wide error.

Assay: self-splicing fitness, log relative to wild type (ln ratio); higher = more splicing; Tetrahymena group I intron in knt gene, E. coli kanamycin selection, DiMSum; sequences stand for … in CUCUCU…GGAGGGAAAAGUUAUCAGGCAUGCACCUGGUAGCUAGUCUUUAAACCAAUAGAUUGCAUCGGUUUAAAAGGCAAGACCGUCAAAUUGCGGGAAAGGGGUCAACAGCCGUUCAGUACCAAGUCUCAGGGGAAACUUUGAGAUGGCCUUGCAAAGGGUAUGGUAAUAAGCUGACGGACAUGGUCCUAACCACGCAGCCAAGUCCUAAGUCAACAGAUCUUCUGUUGAUAUGGAUGCAGUUCACAGACUAAAUGUCGGUCGGGGAAGAUGUAUUCUUCUCAUAAGAUAUAGUCGGACCUCUCCUUAAUGGGAGCUAGCGGAUGAAGUGAUGCAACACUGGAGCCGCUGGGAACUAAUUUGUAUGCGAAAGUAUAUUGAUUAGUUUUGGAGUACUCGUGGUCG
In short: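 DiMSum derived fitness as the error-weighted combination of fold changes across replicates, kanamycin versus no kanamycin, normalised to wild type. E. coli BL21(DE3) held the library, which randomised all eight P1ex-region intron nucleotides within the knt kanamycin-resistance gene on pET-22b(+). Six replicate transformations grew overnight at 37°C or 30°C on LB agar with or without 25 μg/mL kanamycin, also containing 100 μg/mL carbenicillin, 50 μM IPTG and 0.2% rhamnose, and pooled colonies were amplicon-sequenced on an Illumina HiSeq 2500.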

Sequence	self-splicing fitness (ln) (30 °C)	self-splicing fitness (ln) (37 °C)
UAGGAGCAAUAUUACGCAAC	0.845 ± 0.77	-2.08 ± 1.1
UCUGAGCAAUAUUACGGCCG	–	-2.17 ± 0.56
CUCUAGCAAUAUUACGACGC	-2.47 ± 1.1	–
GCAAAGCAAUAUUACGAUUC	-1.26 ± 0.082	-0.245 ± 0.1
CUUUAGCAAUAUUACGAGUC	-3.76 ± 0.6	–
UUCGAGCAAUAUUACGAAUU	-4.49 ± 1	-2.64 ± 1.1
UGAUAGCAAUAUUACGCGGC	-2.72 ± 0.57	–
UUCUAGCAAUAUUACGAUCG	-3.71 ± 0.73	–
CUUGAGCAAUAUUACGGUUC	-3.56 ± 0.35	-2.51 ± 0.36
CUGGAGCAAUAUUACGUGCA	–	-2.24 ± 0.55
GCAUAGCAAUAUUACGCGGA	-3.65 ± 0.61	–
AGCGAGCAAUAUUACGGGAA	-4.19 ± 0.53	–
GUUUAGCAAUAUUACGCCGG	–	-0.384 ± 0.82
AAAGAGCAAUAUUACGCACA	-3.09 ± 0.63	–
GGAGAGCAAUAUUACGGGCC	–	-2.56 ± 0.76
GUGGAGCAAUAUUACGCCAC	-0.86 ± 1.4	–
CGUAAGCAAUAUUACGCCCC	-1.57 ± 0.51	-1.13 ± 0.5
CUCUAGCAAUAUUACGUAAC	–	-3.93 ± 0.72
CAUAAGCAAUAUUACGUUCC	-3.94 ± 0.32	-0.522 ± 0.77
AUAGAGCAAUAUUACGUGCU	–	-2.11 ± 0.56
UCUCAGCAAUAUUACGGCCG	-3.6 ± 0.53	–
UGAGAGCAAUAUUACGUGUC	-4.82 ± 1	-2.26 ± 0.57
CUUCAGCAAUAUUACGCACA	–	-2.99 ± 0.53
UUAUAGCAAUAUUACGACCC	-2.09 ± 1.4	–

Sequence	self-splicing fitness (ln) (30 °C)	self-splicing fitness (ln) (37 °C)
AGAGAGCAAUAUUACGUCCG	–	-1.63 ± 0.33
GAGAAGCAAUAUUACGCCGG	-2.05 ± 0.44	0.0344 ± 0.4
CAUCAGCAAUAUUACGUGGC	-4.41 ± 0.27	-2.72 ± 0.19
CCUCAGCAAUAUUACGUACG	-1.32 ± 0.069	-0.131 ± 0.084
CCCGAGCAAUAUUACGCGUA	-3.06 ± 0.21	-2.05 ± 0.21
UGUAAGCAAUAUUACGAUUC	-3.16 ± 0.54	–
CCGUAGCAAUAUUACGGCUC	–	-0.629 ± 0.53
AUUGAGCAAUAUUACGAAUA	-3.63 ± 1	-1.98 ± 0.81
UACUAGCAAUAUUACGCUGC	-2.5 ± 0.91	–
CAGUAGCAAUAUUACGCAAU	–	-3.23 ± 0.6
GGGUAGCAAUAUUACGAGAA	-0.868 ± 1.4	-1.94 ± 0.77
UCGAAGCAAUAUUACGGAGC	-3.27 ± 0.74	–
UGUGAGCAAUAUUACGAAUC	–	-2.9 ± 0.61
CUUUAGCAAUAUUACGAUCA	–	-2.16 ± 0.5
GUGGAGCAAUAUUACGGGCU	–	-1.89 ± 0.59
GGUAAGCAAUAUUACGCCCG	-2.57 ± 0.77	–
GGCCAGCAAUAUUACGCGAC	0.468 ± 1.1	-1.47 ± 1.2
UAGAAGCAAUAUUACGUCCC	-2.46 ± 0.63	–
CUUUAGCAAUAUUACGACCU	–	-2.83 ± 0.61
GGGCAGCAAUAUUACGAGGG	-3.93 ± 0.34	-2.39 ± 0.24
CUGAAGCAAUAUUACGACAC	–	-1.38 ± 0.74
UUGUAGCAAUAUUACGCAGC	-3.25 ± 0.74	-2.5 ± 0.77
AUCUAGCAAUAUUACGAAAC	-2.28 ± 0.65	–
AUGGAGCAAUAUUACGAACA	–	-2.63 ± 1.1

Record cards, as listed above. Order of values: self-splicing fitness (ln) (30 °C)	self-splicing fitness (ln) (37 °C)
GGUAAGCAAUAUUACGCCCG in the list: -2.57 ± 0.77	–
GGCCAGCAAUAUUACGCGAC in the list: 0.468 ± 1.1	-1.47 ± 1.2
CCGUAGCAAUAUUACGGCUC in the list: –	-0.629 ± 0.53
GUGGAGCAAUAUUACGGGCU in the list: –	-1.89 ± 0.59

Further entries

Sequence	self-splicing fitness (ln) (30 °C)	self-splicing fitness (ln) (37 °C)
AGGGAGCAAUAUUACGGCAG	-4.78 ± 0.72	-3.29 ± 0.53
CUCUAGCAAUAUUACGAAGC	-3.6 ± 0.73	–
UCCAAGCAAUAUUACGCUCC	-2.56 ± 0.65	-1.34 ± 0.71
CCCGAGCAAUAUUACGCCUG	–	-2.52 ± 0.55
UACUAGCAAUAUUACGAGCC	–	-1.72 ± 0.59
UCGAAGCAAUAUUACGCGCA	0.425 ± 0.26	-0.635 ± 0.21
CCCCAGCAAUAUUACGACAA	-5.09 ± 0.72	–
ACGCAGCAAUAUUACGCCAC	-5.11 ± 0.71	–
UAGCAGCAAUAUUACGAGAC	-1.84 ± 0.24	-3.06 ± 0.32
UUCCAGCAAUAUUACGCAAC	–	-2.49 ± 0.63
CGAGAGCAAUAUUACGCUAU	-3.12 ± 0.51	-0.693 ± 0.58
UCUCAGCAAUAUUACGCCAU	-4.27 ± 1	-6.09 ± 1
AAGGAGCAAUAUUACGGAUA	-3.9 ± 0.35	-1.99 ± 0.29
GGAGAGCAAUAUUACGCCCA	-2.51 ± 0.65	–
UCGAAGCAAUAUUACGCACC	-4.21 ± 1	–
AGGGAGCAAUAUUACGAUCA	-3.83 ± 0.6	–
UUGUAGCAAUAUUACGCCAA	-1.22 ± 0.13	-0.297 ± 0.13
CCUGAGCAAUAUUACGGCCC	–	-1.95 ± 0.54
GGGGAGCAAUAUUACGAACU	-2.75 ± 0.31	-1.76 ± 0.27
CGAGAGCAAUAUUACGCUCA	-2.44 ± 0.78	-0.527 ± 0.62
AGGGAGCAAUAUUACGUGGC	-3.17 ± 1	-1.6 ± 0.84
AGGCAGCAAUAUUACGGUGC	-3.54 ± 0.16	-2.89 ± 0.2
UGGGAGCAAUAUUACGGUAC	-2.94 ± 0.69	-3 ± 1
AUUUAGCAAUAUUACGAAUU	-3.21 ± 0.35	-1.85 ± 0.38

Sequence	self-splicing fitness (ln) (30 °C)	self-splicing fitness (ln) (37 °C)
CGGAAGCAAUAUUACGAGUC	-2.83 ± 0.22	-2.39 ± 0.31
CUUUAGCAAUAUUACGCAGA	-2.93 ± 0.55	–
AACGAGCAAUAUUACGCUAC	-3.06 ± 0.61	-1.86 ± 0.31
UUCCAGCAAUAUUACGUGCC	-3.57 ± 0.73	–
UGCUAGCAAUAUUACGCCAC	-1.26 ± 0.6	-0.44 ± 1.4
CCGAAGCAAUAUUACGAAGC	-4.31 ± 1	–
GGGGAGCAAUAUUACGCAAA	-2.84 ± 0.54	-2.39 ± 0.55
CGUAAGCAAUAUUACGAACG	-3.04 ± 0.18	-1.76 ± 0.22
UGCCAGCAAUAUUACGUAGC	-3.9 ± 0.37	-1.64 ± 0.17
UAUAAGCAAUAUUACGAGAA	-0.993 ± 0.82	-1.08 ± 0.52
CGUGAGCAAUAUUACGUAUA	-2.71 ± 0.18	-1.55 ± 0.18
GUCAAGCAAUAUUACGCGCG	-2 ± 0.13	-1.32 ± 0.15
CCGAAGCAAUAUUACGCCCA	–	-1.02 ± 0.59
UUUGAGCAAUAUUACGAGUC	–	-1.66 ± 0.53
AGGCAGCAAUAUUACGCUAA	-1.05 ± 0.097	-0.682 ± 0.11
UCGGAGCAAUAUUACGUUUG	-2.71 ± 0.63	-0.697 ± 0.6
UCCAAGCAAUAUUACGCCCC	-0.572 ± 1.2	–
UCCUAGCAAUAUUACGAAGC	-3.82 ± 1	-2.22 ± 0.55
CUUAAGCAAUAUUACGCCGA	–	-2.54 ± 0.76
GGUAAGCAAUAUUACGUCGA	-2.41 ± 0.52	–
CGCUAGCAAUAUUACGAUUC	-3.29 ± 0.36	-2.12 ± 0.21
GGAGAGCAAUAUUACGCGAG	–	-2.18 ± 0.76
